Where “and” joins values, the source holds several entries; their conditions need not be identical. Identical values can stand only once. Further values from the same series stand in other lists.
System: U2OS cells
Assay: Cell growth assay (IncuCyte confluence over 72 h)
Format: cell-based
Set-up: key: % of well area covered by cells (confluence)
Conditions: listed as 10O5
Procedure, shortened: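 U2OS cells were grown in DMEM with 10% FBS for 24 h before treatment. Confluence was then tracked by IncuCyte phase imaging over 72 h and expressed as % of well area covered by cells. Each point is the average of three wells.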

O=C1Nc2ccc(I)cc2C1=Cc1cc(Br)c(O)c(Br)c1 [compound 4]
U2OS cell growth (3 uM, time 12 h): 40.3933 and 47.5715 | U2OS cell growth (3 uM, time 14 h): 40.9146 and 42.4095 and 46.7299 | U2OS cell growth (3 uM, time 16 h): 48.6545 and 50.5058 and 56.9939 | U2OS cell growth (3 uM, time 18 h): 46.383 and 47.4183 and 52.8398 | U2OS cell growth (3 uM, time 20 h): 45.5953 and 50.3197 and 57.1312 | U2OS cell growth (3 uM, time 22 h): 54.2587 and 50.5906 and 56.1778 | U2OS cell growth (3 uM, time 24 h): 49.3937 and 47.3898 and 56.8872 | U2OS cell growth (3 uM, time 26 h): 52.4755 and 55.3333 and 63.7832 | U2OS cell growth (3 uM, time 28 h): 54.708 and 58.8517 and 64.0279 | U2OS cell growth (3 uM, time 30 h): 57.9913 and 59.0886 and 65.3867 | U2OS cell growth (3 uM, time 32 h): 50.0039 and 62.5265 and 70.3863 | U2OS cell growth (3 uM, time 34 h): 58.6735 and 60.7998 and 66.6879 | U2OS cell growth (3 uM, time 36 h): 65.7566 and 69.7518 and 75.9995 | U2OS cell growth (3 uM, time 38 h): 63.7792 and 69.3951 and 76.8777 | U2OS cell growth (3 uM, time 40 h): 72.9944 and 75.258 and 82.4626 | U2OS cell growth (3 uM, time 42 h): 74.3243 and 75.8149 and 82.292 | U2OS cell growth (3 uM, time 44 h): 76.4482 and 77.9741 and 86.1804 | U2OS cell growth (3 uM, time 46 h): 73.5583 and 77.0284 and 79.321 | U2OS cell growth (3 uM, time 48 h): 80.2552 and 82.0383 and 89.0914 | U2OS cell growth (3 uM, time 50 h): 77.3392 and 78.4525 and 89.8375 | U2OS cell growth (3 uM, time 52 h): 80.5636 and 84.5844 and 92.5718 | U2OS cell growth (3 uM, time 54 h): 79.8246 and 85.0806 and 90.7633 | U2OS cell growth (3 uM, time 56 h): 86.0206 and 89.2174 and 94.3255 | U2OS cell growth (3 uM, time 58 h): 80.9144 and 90.9376 and 95.487 | U2OS cell growth (3 uM, time 60 h): 90.7253 and 93.5567 and 97.5358 | U2OS cell growth (3 uM, time 62 h): 91.4306 and 94.7191 and 98.0212 | U2OS cell growth (3 uM, time 64 h): 91.7465 and 95.1789 and 97.9067 | U2OS cell growth (3 uM, time 66 h): 91.472 and 96.2512 and 98.2278 | U2OS cell growth (3 uM, time 68 h): 92.0442 and 97.3153 and 98.538 | U2OS cell growth (3 uM, time 70 h): 95.563 and 97.9133 and 99.5812 | U2OS cell growth (3 uM, time 72 h): 96.2189 and 98.3819 and 99.5553 | U2OS cell growth (5 uM, time 12 h): 41.5945 and 38.107 and 44.6887 | U2OS cell growth (5 uM, time 14 h): 42.5008 and 38.1079 and 39.3573 | U2OS cell growth (5 uM, time 16 h): 50.9744 and 41.3957 and 53.3145 | U2OS cell growth (5 uM, time 18 h): 48.9415 and 43.9969 and 52.58 | U2OS cell growth (5 uM, time 20 h): 48.6684 and 42.3366 and 50.5588 | U2OS cell growth (5 uM, time 22 h): 54.1128 and 49.142 and 52.8209 | U2OS cell growth (5 uM, time 24 h): 52.6615 and 48.5016 and 56.8778 | U2OS cell growth (5 uM, time 26 h): 57.9395 and 52.7691 and 58.135 | U2OS cell growth (5 uM, time 28 h): 60.7106 and 52.9898 and 61.8699 | U2OS cell growth (5 uM, time 30 h): 61.8812 and 54.3593 and 62.709 | U2OS cell growth (5 uM, time 32 h): 57.6364 and 56.2779 and 65.0716 | U2OS cell growth (5 uM, time 34 h): 63.5223 and 58.7092 and 65.0622 | U2OS cell growth (5 uM, time 36 h): 69.4287 and 63.2015 and 69.982 | U2OS cell growth (5 uM, time 38 h): 71.824 and 61.2462 and 70.38 | U2OS cell growth (5 uM, time 40 h): 74.0138 and 65.4881 and 75.2701 | U2OS cell growth (5 uM, time 42 h): 74.612 and 66.8247 and 75.4771 | U2OS cell growth (5 uM, time 44 h): 78.1824 and 69.242 and 78.4744 | U2OS cell growth (5 uM, time 46 h): 79.1644 and 69.3671 and 78.4477 | U2OS cell growth (5 uM, time 48 h): 80.7281 and 72.6872 and 81.2898 | U2OS cell growth (5 uM, time 50 h): 82.2925 and 72.7627 and 80.4822 | U2OS cell growth (5 uM, time 52 h): 84.7048 and 77.3288 and 85.0115 | U2OS cell growth (5 uM, time 54 h): 85.3093 and 77.4144 and 84.8043 | U2OS cell growth (5 uM, time 56 h): 87.123 and 79.1589 and 88.3874 | U2OS cell growth (5 uM, time 58 h): 89.2307 and 83.3243 and 90.1566 | U2OS cell growth (5 uM, time 60 h): 91.6425 and 85.251 and 92.1104 | U2OS cell growth (5 uM, time 62 h): 92.7659 and 86.8499 and 93.8025 | U2OS cell growth (5 uM, time 64 h): 92.554 and 87.4549 and 94.6119 | U2OS cell growth (5 uM, time 66 h): 93.7627 and 89.6413 and 94.2806 | U2OS cell growth (5 uM, time 68 h): 95.1361 and 89.5041 and 95.9309 | U2OS cell growth (5 uM, time 70 h): 95.6942 and 91.3841 and 94.5801 | U2OS cell growth (5 uM, time 72 h): 96.4852 and 92.6609 and 98.1277 | U2OS cell growth (10 uM, time 12 h): 32.536 and 40.0639 and 48.1529 | U2OS cell growth (10 uM, time 14 h): 32.247 and 42.8271 and 49.1718 | U2OS cell growth (10 uM, time 16 h): 37.5553 and 46.1317 and 54.8753 | U2OS cell growth (10 uM, time 18 h): 37.4657 and 47.6272 and 56.1926 | U2OS cell growth (10 uM, time 20 h): 38.7326 and 47.4055 and 57.0088 | U2OS cell growth (10 uM, time 22 h): 39.7622 and 51.4521 and 59.9978 | U2OS cell growth (10 uM, time 24 h): 42.1096 and 53.6167 and 60.9289 | U2OS cell growth (10 uM, time 26 h): 43.4453 and 57.2891 and 63.7092 | U2OS cell growth (10 uM, time 28 h): 45.1185 and 57.2332 and 66.0065 | U2OS cell growth (10 uM, time 30 h): 46.3437 and 57.1579 and 66.5001 | U2OS cell growth (10 uM, time 32 h): 49.7047 and 61.5367 and 69.5882 | U2OS cell growth (10 uM, time 34 h): 49.942 and 59.425 and 68.4571 | U2OS cell growth (10 uM, time 36 h): 56.0947 and 64.6299 and 72.6348 | U2OS cell growth (10 uM, time 38 h): 53.7931 and 65.5316 and 73.1188 | U2OS cell growth (10 uM, time 40 h): 55.9633 and 67.281 and 76.365 | U2OS cell growth (10 uM, time 42 h): 58.3821 and 68.9853 and 79.3765 | U2OS cell growth (10 uM, time 44 h): 62.8173 and 70.6817 and 81.7808 | U2OS cell growth (10 uM, time 46 h): 63.0586 and 71.9052 and 81.5978 | U2OS cell growth (10 uM, time 48 h): 66.7143 and 74.8794 and 86.1006 | U2OS cell growth (10 uM, time 50 h): 68.4152 and 76.0558 and 85.7427 | U2OS cell growth (10 uM, time 52 h): 70.6127 and 77.5502 and 87.278 | U2OS cell growth (10 uM, time 54 h): 71.8781 and 77.544 and 89.6058 | U2OS cell growth (10 uM, time 56 h): 73.7808 and 79.5773 and 89.8946 | U2OS cell growth (10 uM, time 58 h): 78.3188 and 83.1021 and 91.9761 | U2OS cell growth (10 uM, time 60 h): 80.8925 and 84.9228 and 91.941 | U2OS cell growth (10 uM, time 62 h): 82.3316 and 85.8762 and 93.6542 | U2OS cell growth (10 uM, time 64 h): 82.513 and 86.3593 and 93.8134 | U2OS cell growth (10 uM, time 66 h): 84.2508 and 86.8187 and 94.2739 | U2OS cell growth (10 uM, time 68 h): 86.1402 and 89.1597 and 95.5012 | U2OS cell growth (10 uM, time 70 h): 88.3142 and 90.3834 and 95.9118 | U2OS cell growth (10 uM, time 72 h): 89.6628 and 91.8421 and 96.8848

Source: PMC11589570, “Critical assessment of LC3/GABARAP ligands used for degrader development and ligandability of LC3/GABARAP binding pockets” (Nature Communications, 2024)
